Laboratory results reported in article PMC6885518.
No constants are given. Whether binding was seen depends on the method and setting. Binding seen in cells or lysates may run through a third protein. Some binding calls cover weakened binding; strength is not graded here.

Chains of the proteins cited; added tags and fusions are not shown. Residues count along the entry.
UniProt Q01097, residues 27-1482: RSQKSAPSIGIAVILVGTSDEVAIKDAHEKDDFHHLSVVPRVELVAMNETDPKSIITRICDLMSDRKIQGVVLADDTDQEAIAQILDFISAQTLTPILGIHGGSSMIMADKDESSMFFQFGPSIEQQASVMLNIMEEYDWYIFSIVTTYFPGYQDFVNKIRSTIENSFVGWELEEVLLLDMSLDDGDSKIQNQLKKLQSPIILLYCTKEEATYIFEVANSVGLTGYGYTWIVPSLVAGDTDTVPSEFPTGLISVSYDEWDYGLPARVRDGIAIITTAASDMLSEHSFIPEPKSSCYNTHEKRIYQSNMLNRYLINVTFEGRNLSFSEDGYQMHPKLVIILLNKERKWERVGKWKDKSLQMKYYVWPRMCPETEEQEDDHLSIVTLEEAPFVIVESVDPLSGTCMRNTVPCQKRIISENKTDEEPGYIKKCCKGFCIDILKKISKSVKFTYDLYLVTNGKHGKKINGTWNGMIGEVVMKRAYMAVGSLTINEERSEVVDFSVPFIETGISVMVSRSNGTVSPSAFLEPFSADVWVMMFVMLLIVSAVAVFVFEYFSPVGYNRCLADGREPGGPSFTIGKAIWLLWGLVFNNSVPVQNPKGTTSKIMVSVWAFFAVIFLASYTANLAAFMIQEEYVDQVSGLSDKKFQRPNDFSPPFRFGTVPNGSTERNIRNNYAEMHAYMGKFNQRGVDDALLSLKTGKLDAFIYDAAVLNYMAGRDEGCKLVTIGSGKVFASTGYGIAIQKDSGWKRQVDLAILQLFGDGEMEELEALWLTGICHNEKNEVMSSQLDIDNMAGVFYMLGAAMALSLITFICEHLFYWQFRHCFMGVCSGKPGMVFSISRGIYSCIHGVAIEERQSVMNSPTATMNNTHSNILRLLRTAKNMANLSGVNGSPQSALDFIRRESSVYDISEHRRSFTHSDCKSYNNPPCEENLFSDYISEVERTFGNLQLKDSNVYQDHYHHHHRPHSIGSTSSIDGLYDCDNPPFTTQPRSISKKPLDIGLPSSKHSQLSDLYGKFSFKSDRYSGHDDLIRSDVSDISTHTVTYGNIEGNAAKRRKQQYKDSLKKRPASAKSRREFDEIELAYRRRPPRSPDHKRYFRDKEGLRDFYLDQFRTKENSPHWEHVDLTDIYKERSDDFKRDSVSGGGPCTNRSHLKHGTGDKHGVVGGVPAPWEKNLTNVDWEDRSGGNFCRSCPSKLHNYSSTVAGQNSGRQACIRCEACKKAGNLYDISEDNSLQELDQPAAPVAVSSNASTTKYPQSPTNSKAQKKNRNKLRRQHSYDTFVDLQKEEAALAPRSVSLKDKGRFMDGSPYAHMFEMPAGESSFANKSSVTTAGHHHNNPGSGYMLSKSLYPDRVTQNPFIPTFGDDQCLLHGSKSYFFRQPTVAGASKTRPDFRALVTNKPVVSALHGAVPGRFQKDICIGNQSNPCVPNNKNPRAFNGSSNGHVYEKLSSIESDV
UniProt Q62083: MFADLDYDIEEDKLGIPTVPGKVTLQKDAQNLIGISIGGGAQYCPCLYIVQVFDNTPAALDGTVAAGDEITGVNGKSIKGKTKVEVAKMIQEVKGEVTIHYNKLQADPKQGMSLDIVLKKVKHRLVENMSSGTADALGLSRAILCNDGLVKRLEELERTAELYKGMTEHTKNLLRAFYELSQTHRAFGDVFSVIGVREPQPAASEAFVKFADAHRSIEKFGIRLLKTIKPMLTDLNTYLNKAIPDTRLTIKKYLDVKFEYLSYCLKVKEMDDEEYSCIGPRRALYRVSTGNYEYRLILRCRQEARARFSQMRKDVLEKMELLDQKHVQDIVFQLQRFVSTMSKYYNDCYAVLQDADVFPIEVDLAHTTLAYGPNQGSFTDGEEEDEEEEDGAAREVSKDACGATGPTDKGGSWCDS

Experiments:
[1] = target: N-methyl D-aspartate receptor subtype 2B (NR2B), wild type, Flag-tagged (UniProt Q01097); experiment: co-IP; HEK293T cells co-transfected with NR2B-Flag (WT, S2A or S2E), PKCα-HA and PICK1-Myc, lysed 36 h after transfection (50 mM Tris-HCl pH 7.4, 1% Triton X-100, 1 mM EDTA, 10 mM NaF, 1 mM Na3VO4); IP with mouse anti-DDDDK, anti-HA or anti-Myc antibody or control IgG, 6 h at 4 °C, protein A/G agarose overnight; blots with rabbit anti-tag antibodies
[2] = target: protein interacting with C kinase 1 (PICK1), Myc-tagged (UniProt Q62083); experiment: as above

binding [1] | binding [2] | Substance
binds | – | protein interacting with C kinase 1 (PICK1), Myc-tagged (from UniProt Q62083 1-416)
– | binds | protein kinase Cα (PKCα), HA-tagged (from UniProt P20444 1-672) (enzyme)
